System: melanoma A375 tumor cell line
Assay: MTT reduction assay, A375 melanoma cells
Assay type: cell-based, human
Conditions: for times more toxic against the A375 cancer cell line than the normal BJ line: A375 vs BJ, 72 h; for Selectivity index SI = IC50 (BJ)/ IC50 (A375): BJ vs A375, 72 h
Protocol: The cytotoxic activity was measured against the melanoma A375 tumor cell line (ECACC) and the human BJ fibroblast cell line (ATCC) using an MTT reduction assay. The selectivity index (SI) was calculated using the following formula: SI = IC50 (BJ)/ IC50 (A375).
The A375 cell line was purchased from the European Collection of Authenticated Cell Cultures (ECACC, Salisbury, UK) and the BJ human fibroblast cell line from the American Type Culture Collection (ATCC, Manassas, VA, USA). All the cell lines were grown as a monolayer in standard conditions: 37 °C, 100% humidity, under an atmosphere of 5% CO2. […] The BJ cell line was grown in EMEM with EBSS, NEAA and sodium pyruvate with L-Glutamine supplemented, 10% fetal bovine serum and 50 IU/mL penicillin/streptomycin.
Next, the cells were seeded in 96-well plates at a density of 5000 cells per well and incubated overnight to reach the logarithmic growth phase. […] After 72 h, 10 µL of MTT solution (5 g/L) was added into each well and incubated for an additional four hours. Subsequently, the medium was removed, and 100 µL of dimethyl sulfoxide (DMSO) was added into each well. The absorbance was then measured at 570 nm using a SPECTROstar Nano microplate reader (BMG Biotech Inc., Cary, NC, USA)/Tecan Spark 10M. The mean value from three independent BJ and A375 cell cultures was taken to calculate the cell viability, expressed as a percentage of the control values, i.e., untreated cells assumed as 100%.

| Compound | times more toxic against the A375 cancer cell line than the normal BJ line | Selectivity index SI = IC50 (BJ)/ IC50 (A375) |
| --- | --- | --- |
| Cc1ncc([N+](=O)[O-])n1CCO.Cc1ncc([N+](=O)[O-])n1CCO.O=[N+]([O-])[O-].[Ag+] [[(MTZ)2AgNO3]] | 15 |  |
| Clc1ccc(COC(Cn2ccnc2)c2ccc(Cl)cc2Cl)c(Cl)c1.Clc1ccc(COC(Cn2ccnc2)c2ccc(Cl)cc2Cl)c(Cl)c1.[Ag+].[O-][Cl+3]([O-])([O-])[O-] (stereo not shown) [[Ag(MCZ)2ClO4]] |  | 1.45 |
| Clc1ccc(COC(Cn2ccnc2)c2ccc(Cl)cc2Cl)c(Cl)c1.Clc1ccc(COC(Cn2ccnc2)c2ccc(Cl)cc2Cl)c(Cl)c1.O=[N+]([O-])[O-].[Ag+] (stereo not shown) [[Ag(MCZ)2NO3]] | eight-fold |  |
| Clc1ccc(COC(Cn2ccnc2)c2ccc(Cl)cc2Cl)c(Cl)c1.Clc1ccc(COC(Cn2ccnc2)c2ccc(Cl)cc2Cl)c(Cl)c1.[Ag+].[F][Sb-]([F])([F])([F])([F])[F] (stereo not shown) [[Ag(MCZ)2SbF6]] |  | 0.86 |

Source: article PMC11121064 (International Journal of Molecular Sciences, 2024)
